Laboratory results taken from PMC7485976.
Results are given in words; binding and its absence hold for the method and conditions named. In cells and extracts the contact can be indirect. Some entries that bind do so weakly or less than the wild type.

Protein sequences, listed by entry. Tags and fused reporters are not part of them. Residues count along the entry.
UniProt P28159: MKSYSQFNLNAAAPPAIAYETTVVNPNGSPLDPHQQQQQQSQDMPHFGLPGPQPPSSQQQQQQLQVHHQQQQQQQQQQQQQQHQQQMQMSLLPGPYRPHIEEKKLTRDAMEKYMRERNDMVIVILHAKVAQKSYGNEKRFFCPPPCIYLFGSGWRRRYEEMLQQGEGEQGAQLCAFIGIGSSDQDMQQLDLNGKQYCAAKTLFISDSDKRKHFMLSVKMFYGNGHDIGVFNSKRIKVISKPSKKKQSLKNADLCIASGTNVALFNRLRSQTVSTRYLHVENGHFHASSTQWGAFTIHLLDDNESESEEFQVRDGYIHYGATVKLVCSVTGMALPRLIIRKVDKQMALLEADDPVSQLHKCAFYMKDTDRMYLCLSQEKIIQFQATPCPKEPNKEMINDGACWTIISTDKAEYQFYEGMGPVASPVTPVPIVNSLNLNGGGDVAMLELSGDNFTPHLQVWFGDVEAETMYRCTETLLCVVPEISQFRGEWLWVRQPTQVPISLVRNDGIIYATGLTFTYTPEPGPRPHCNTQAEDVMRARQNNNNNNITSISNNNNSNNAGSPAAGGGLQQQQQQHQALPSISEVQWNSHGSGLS
UniProt P13002, residues 551-1333: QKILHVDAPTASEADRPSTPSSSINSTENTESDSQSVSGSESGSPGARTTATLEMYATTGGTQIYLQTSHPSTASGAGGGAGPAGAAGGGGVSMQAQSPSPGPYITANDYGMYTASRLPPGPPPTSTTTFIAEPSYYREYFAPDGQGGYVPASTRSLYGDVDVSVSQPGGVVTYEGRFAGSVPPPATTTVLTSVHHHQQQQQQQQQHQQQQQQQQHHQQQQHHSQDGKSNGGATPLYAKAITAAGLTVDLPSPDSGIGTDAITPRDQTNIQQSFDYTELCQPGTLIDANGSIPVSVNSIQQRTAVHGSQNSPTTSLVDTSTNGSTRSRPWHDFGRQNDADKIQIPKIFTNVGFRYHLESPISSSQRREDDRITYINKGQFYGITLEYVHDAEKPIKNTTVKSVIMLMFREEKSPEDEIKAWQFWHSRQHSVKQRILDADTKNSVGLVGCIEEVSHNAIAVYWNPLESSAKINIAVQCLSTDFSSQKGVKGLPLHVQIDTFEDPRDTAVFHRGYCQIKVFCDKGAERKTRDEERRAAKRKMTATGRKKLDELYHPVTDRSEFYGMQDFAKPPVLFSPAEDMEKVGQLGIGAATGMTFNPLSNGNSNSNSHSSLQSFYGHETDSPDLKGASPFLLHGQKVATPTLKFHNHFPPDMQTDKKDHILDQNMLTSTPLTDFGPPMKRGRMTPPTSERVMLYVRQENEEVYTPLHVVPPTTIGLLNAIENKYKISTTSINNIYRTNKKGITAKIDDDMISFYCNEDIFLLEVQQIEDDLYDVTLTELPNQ

Columns and labels:
[1] = target: N-terminal-GST-tagged Abd-B-N (aa residues 313 to 493) (Drosophila) (UniProt P09087); test: pull-down; in-vitro pulldown of bacterially expressed proteins: GST-tagged bait or GST alone, His-tagged prey; Western blot
[2] = target: N-terminal-GST-tagged Abd-B-N (aa residues 313 to 493) (Drosophila) (UniProt P09087); test: pull-down; GST-tagged Abd-B or GST alone as bait; His-tagged Grh pulled down from bacterial lysate; Western blot; also with micrococcal nuclease treatment; performed as in ref. 13; only the target purified
[3] = target: GST-tagged Su(H) (Drosophila) (UniProt P28159); test: pull-down; in-vitro pulldown of bacterially expressed proteins: GST-tagged bait or GST alone, His-tagged prey; Western blot

Row | binding [1] | binding [2] | binding [3] | Substance
1 | binds |  |  | His-tagged Su(H) (from UniProt P28159 1-594)
2 |  | binds | binds | His tagged Grh (551–1333 aa) (from UniProt P13002 551-1333) (domain or fragment)
